Assay results as given in patent publication US8895302B2, “Directed differentiation of primate pluripotent stem cells into functional basal forebrain cholinergic neurons (BFCNs) and medium spiny gabaergic projection neurons” (Wisconsin Alumni Research Foundation, priority 2010, dated 2014).
For at least one compound, name, drawing or mass did not settle the structure.

Tests used:
[1] = system: hESC-derived medium spiny GABA projection neurons; assay: Whole-cell patch clamp, spontaneous synaptic currents of hESC-derived medium spiny GABA projection neurons; format: cell-based, human; settings: bicuculline, neurons differentiated for 70 days
[2] = system: hESC-derived cholinergic neurons; assay: Whole-cell patch clamp, spontaneous synaptic currents of hESC-derived BFCNs; format: cell-based, human; settings: bicuculline 20 μM in combination with CNQX
Protocol: Whole-cell patch-clamp recordings were made from hESC-derived cholinergic neurons at 8-10 weeks age as previously reported (Johnson et al., 2007). Briefly, the neurons were held at −70 mV to record the spontaneous release and Na+/K+ channel activities. For action potential recording, the cells were held at 0 pA with current-clamp model and the steps of currents from +[…] were injected into cells by the holding electrode. The bath solution consisted of 127 mM NaCl, 1.2 mM KH2PO4, 1.9 mM KCl, 26 mM NaHCO3, 2.2 mM CaCl2, 1.4 mM MgSO4, 10 mM glucose, 290 mM mOsm and 95% O2/5% CO2. Recording pipettes were filled with an intracellular recording solution consisting of 20 mM KCl, 121 mM K^+-gluconate, 10 mM Na^+-HEPES, 10 mM BAPTA, 4 mM Mg2^+-ATP pH 7.2 and 290 mOm. Bicuculline (20 μM; Sigma) or 6-cyano-7-nitroquinoxiline-2,3-dione (CNQX, 20 μM; RBI) was applied to the bath solution to distinguish inhibitory (GABAergic) and excitatory (glutamatergic) response. Biocytin (1%, Sigma) was injected into cells after recording to identify the neuronal identity. An Olympus BX51WI microscope was used to visualize neurons. […] Data were analyzed with pClamp 9.0 (Axon instruments). […]
To determine the functionality of the hESC-derived BFCNs, we first measured the electrophysiological properties of the BFCNs that were differentiated for 8-10 weeks by whole cell patch clamping recording (FIG. 3). […]

CN1CCc2cc3c(cc2[C@H]1[C@@H]1OC(=O)c2c1ccc1c2OCO1)OCO3 [bicuculline]
spontaneous synaptic activity [1]: nearly completely blocked
spontaneous synaptic activity [2]: further eliminated
